Results on 1 molecule are retold here after paper PMC10889306, “ApoE Isoforms Inhibit Amyloid Aggregation of Proinflammatory Protein S100A9” (International Journal of Molecular Sciences, 2024).

Sequences of proteins named here, by UniProt entry; tags and fusion partners are left off. A change or cut given only in a name is not applied to a line headed by its entry. A line that says so, or that is headed by a name, gives the form on record, which may keep a tag or linker. Residues count along the entry.
ApoE3-DOPC (lipidated ApoE3) (P02649, residues 19-317): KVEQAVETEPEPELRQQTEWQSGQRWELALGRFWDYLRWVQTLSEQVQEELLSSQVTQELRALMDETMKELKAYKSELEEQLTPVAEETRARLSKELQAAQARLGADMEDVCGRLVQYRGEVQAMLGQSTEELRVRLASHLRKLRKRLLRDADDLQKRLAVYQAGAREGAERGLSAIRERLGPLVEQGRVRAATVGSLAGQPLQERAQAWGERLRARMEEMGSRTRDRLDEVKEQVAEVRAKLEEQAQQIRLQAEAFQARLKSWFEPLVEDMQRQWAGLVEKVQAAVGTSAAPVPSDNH
ApoE4 (lipid-free) (P02649, form named): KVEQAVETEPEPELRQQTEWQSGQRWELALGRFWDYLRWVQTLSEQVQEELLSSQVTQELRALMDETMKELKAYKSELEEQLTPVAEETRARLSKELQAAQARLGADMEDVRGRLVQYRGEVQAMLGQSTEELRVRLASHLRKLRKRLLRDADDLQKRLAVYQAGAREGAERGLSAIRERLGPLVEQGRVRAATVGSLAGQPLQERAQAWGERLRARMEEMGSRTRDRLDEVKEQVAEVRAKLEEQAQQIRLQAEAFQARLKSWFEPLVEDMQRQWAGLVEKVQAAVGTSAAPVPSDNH

Results are given in words; binding and its absence hold for the method and conditions named. Some binding calls cover weakened binding; strength is not graded here.

Test [1] concerns the target T1, ApoE4-DOPC (lipidated ApoE4) (human, UniProt P02649 19-317, Cys112 to Arg112).
T1 construct: Apolipoprotein E, isoform ApoE4 (Arg112/Arg158), human; printed as a 299-residue lipoprotein; 'Lipidated full-length ApoE isoforms'; source: bought: AlexoTech AB (recombinant)
The test can be described thus: cross-linking; native proteins, 4 uM S100A9 and 4 uM ApoE isoform (1:1), preincubated at 4 C overnight; glutaraldehyde at 10- and 100-fold molar excess, 30 min at 4 C, quenched with Tris; SDS-PAGE and Western blot with anti-S100A9 polyclonal antibodies; both purified.

The target of test [2] is T2, ApoE3-DOPC (lipidated ApoE3) (human, UniProt P02649 19-317).
T2 construct: Apolipoprotein E, isoform ApoE3 (Cys112/Arg158), human; printed as a 299-residue lipoprotein; 'Lipidated full-length ApoE isoforms'; also called DOPC-ApoE3; source: bought: AlexoTech AB (recombinant)
The test is described as above.

Another test deals with T3, ApoE4 (lipid-free) (human, UniProt P02649 19-317, Cys112 to Arg112).
T3 construct: Apolipoprotein E, isoform ApoE4 (Arg112/Arg158), human; printed as a 299-residue lipoprotein; the methods call the ApoE isoforms full-length; Natural allele APOE e4; differs from ApoE3 only at position 112; also called Apolipoprotein E4; lipid-free ApoE4; source: bought: AlexoTech AB (recombinant), then size-exclusion chromatography (Superdex 200)
The test can be described thus: SDS-stable complex by Western blot of pellet and SEC fractions; 100 uM S100A9 with 5 uM lipid-free ApoE4, PBS, 42 C, 70 h (methods: 72 h); centrifuged 14,000 rpm 15 min; pellet and Superdex 200 peaks of the supernatant on SDS-PAGE and Western blot with anti-S100A9 polyclonal antibodies (Santa Cruz); both purified.

B1: S100A9 (natural protein)
chain: KMSQLERNIETIINTFHQYSVKLGHPDTLNQGEFKELVRKDLQNFLKKENKNEKVIEHIMEDLDTNADKQLSFEEFIMLMARLTWASHEKMHEGDEGPGHHHKPGLGEGTP
notes: 13 kDa monomer on the gels; PDB 5I8N (S100A9 dimer, NMR) was used for the modelling only; also called native S100A9; S100A9 amyloids; source: Escherichia coli, purified as described previously [57]; Superdex 200 gel filtration for the cross-linking
As for B1, the binding entry in test [1] is “binds weakly”; in test [2], “binds weakly”; with ApoE4 (lipid-free), “binds”.
